Source: PubChem BioAssay AID1457 (National Center for Advancing Translational Sciences (NCATS), 2008)
This is a selection; strong and weak results do not stand in their true shares. Calls of active or inactive are those of the source. Calls follow the shape of the dose curve; as a rule, active = well fitted inhibition curve with a large enough effect; inconclusive = small, poorly fitted or top-dose-only effect; inactive = no such curve, though single readings can be large or run the other way.

Experiment: qHTS Assay for Identifying the Cell-Membrane Permeable IMPase Inhibitors: Potentiation with Lithium;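 also: IP1 builds up when IMPase is blocked and the TR-FRET signal falls; nearly all actives have a fitted effect of over 50% in size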;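 as to activity, negative = IMPase inhibition: plate controls were basal vehicle for no effect and high inhibitor control for full effect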
Conditions: CHO-M1 cells, IP1 TR-FRET (IP-One), carbachol + lithium; series mostly up to 38.3 µM; activity, negative = IMPase inhibition: at the top concentration
Text: NIH Chemical Genomics Center [NCGC]
NIH Molecular Libraries Probe Production centers Network [MLPCN]
Assay Submitter (PI): Wei Zheng
Lithium has been widely used for the treatment of bipolar disorder. But lithium has a narrow therapeutic index and it can cause side effects such as thirst, weight gain, tremor, polyuria and memory problems. Although the mechanism for lithium action in treatment of bipolar disorder is still not fully understood, inhibition of inositol monophosphatase (IMPase) and the subsequent depletion of the inositol pool in living cells have been implicated as the primary therapeutic benefit of lithium therapy. Therefore, a selective IMPase inhibitor with reduced side effects might be a good drug candidate to replace lithium for the treatment of bipolar disorder. Several IMPase inhibitors have been discovered previously. However, they are not suitable for therapeutic use because of their poor cell membrane penetrability or oral bioavailability; the development of new cell-permeable IMPase inhibitors is needed.
IMPase catalyzes the hydrolysis of inositol-1-phosphate (IP1) to release free inositol. Binding of an agonist to a Gq coupled GPCR results in the activation of PLC, which hydrolyzes the PIP2 to form inositol-1,4,5-trisphosphate (IP3) and diacyl glycerol (DAG). While DAG activates protein kinase C (PKC), IP3 triggers the elevation of intracellular free Ca2+. The IP3 is very rapidly inactivated by hydrolysis to IP2, IP1 and then inositol by a series of enzymes including IMPase. Free inositols are used for synthesis of PI and thus start another inositol cycle.
To identify new cell-permeable IMPase inhibitors, we developed a cell-based IMPase assay in which the cytosolic IP1 is measured by a time-resolved fluorescence resonance energy transfer (TR-FRET) assay. In this assay, an IP1 specific antibody is used to detect the labeled IP1 tracer. When the cell lysate contains the elevated IP1 due to the inhibition of IMPase, the TR-FRET between the labeled antibody and IP1 tracer is disrupted resulting in a reduction in the total signal. Since the TR-FRET is used, this cell-based assay is a homogenous assay without cell wash and medium change that is suitable for assay miniaturization and HTS. In this particular assay, a small amount of lithium is added to potentiate the response of weak activators.
NCGC Assay Protocol Summary:
A Chinese hamster ovary (CHO) cell line stably expressing the M1 receptor (CHO-M1) was obtained from ATCC and maintained in F-12 Kaighn's media (Invitrogen, Carlsbad, CA) supplemented with 10 % FBS, 100 units/ml penicillin, 100 ug/ml streptomycin and 250 ug/ml geneticin at 37C, 5% CO2 in a humidified atmosphere. Before the assay, aliquots of cells were frozen and stored at -135C. The assay was performed in 1536-well format. Data are reported for both the ratio of the two emission wavelengths, and also for the component 'donor' channel, Em2=620. […] AC50 values were determined from concentration-response data modeled with the standard Hill equation.
(1) Frozen CHO-M1 cells were thaw, washed once with fresh media and resuspended in F12K media containing 10% FBS, 100 units/ml penicillin and 100 ug/ml streptomycin. Cells were plated at 4ul/well (2000 cells) in white, tissue culture treated 1536-well plates, and then cultured at 37C, 5 % CO2 for 16 to 30 hours.
(2) Add 23 nl/well of compound in DMSO solution. The final titration for each compound was between 0.6 nM and 46 uM.
(4) Incubation at 37C, 5 % CO2 for 30 min.
(5) Add 1 ul/well of d2-conjugated IP1 (d2-IP1) and 1 ul/well of Eu+ cryptate conjugated anti-IP1 antibody (Eu+-Ab) prepared in the cell lysis buffer, both from the IP-One kit (Cisbio, MA).
(6) Incubate at room temperature for 10 minutes.
(7) Detect the assay plate (Ex = 320, Em1 =665 and Em2 620) in a ViewLux plate reader.
Potency is read from the fitted curve at half-maximal effect.

Compound	activity, negative = IMPase inhibition	Potency
Cc1ccc(-c2nc3c(cnn3-c3ccccc3)c(=O)o2)cc1	inactive: 36.8%	
C/C(CC1CC2=C(CC1(C)C)C(C)(C)CCC2)=N\NC(N)=S (configuration not stated)	inactive: 49%	
COc1cc2ccccc2cc1C(=O)Nc1ccc(Cc2ccncc2)cc1	inactive: 45.5%	
CCN(c1ccc(NC(=O)COC(=O)c2ccc(S(=O)(=O)N3CCCC3)cc2)cc1)C(C)C	inactive: 43.6%	
CCOc1cc(C(=O)N2CCN=C2SC)cc(OCC)c1OCC	inactive: 40.8%	
Cc1ccc(CNc2ccc(O)cc2)cc1	inactive: 60.3%	
CC(C)(C)C1CCC2(CC1)C(C#N)=C(SCC(=O)Nc1ccccc1)NC(=O)C2C#N (configuration not stated)	inactive: 67.1%	
O=C(c1nnsc1S(=O)c1ccc(Cl)cc1)N1CCOCC1 (configuration not stated)	inactive: 30.2% [at 59.4 µM]	
Cn1c(CCN2CCCCC2)nc2cc(NS(=O)(=O)c3ccccc3)ccc21	inactive: 32.2%	
Cc1ccc(Cn2c(SCC(=O)NCC3CCCO3)nc3c(sc4ccccc43)c2=O)cc1 (configuration not stated)	inactive: 21.8%	
CCOC(=O)/C(C#N)=C/C1=C(N2CCCC2)CC(C)(CC)OC1 (configuration not stated)	inactive: 44.6%	
CCOC(=O)/C(C#N)=C\C1=C(N2CCCC2)CC(C)(CC)OC1 (configuration not stated)	inactive: 4.81% [at 59.4 µM]	
Cc1c(OCC(=O)OC(C)C)ccc2c3c(c(=O)oc12)CCC3	inactive: 47.4%	
O=C(CNC1CCCC1)Nc1ccc(N2CCCCCC2)cc1	inactive: 38% [at 59.4 µM]	
COc1ccccc1CN1C[C@@H]2C[C@@H](c3ccc(C)c(C)c3)N3CCC[C@@]23C1=O	inactive: 37.1% [at 59.4 µM]	
NS(=O)(=O)c1ccc(NC(=O)c2ccccc2C(=O)N2CCCCC2)cc1	inactive: 34.6%	
CCN(CC)CCCN1C(=O)C(O)=C(C(=O)c2cc3cccc(OC)c3o2)C1c1ccncc1 (configuration not stated)		active: 10 µM
